Data as given in PubChem BioAssay AID1508597 (Cure First, 2020).

Aim: 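Genes whose silencing sensitises or protects ovarian cancer cells against rucaparib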 (primary screen)
Cell system: human ovarian carcinoma lines grown from tumours: OCI-P5x (papillary serous) and OCI-C5x (clear cell)
Reagent: siRNA pool against human genes, 1.25 pmol siRNA per well
Timing: 72 h or 96 h, depending on the cell culture
Challenge: rucaparib 20 µM (about IC30) or vehicle, present until read-out
Rucaparib or vehicle: Rucaparib
Cell line: OCI-P5x (serous)
Measured: 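ATP luminescence measured at 72 or 96 h according to the culture, then normalised and expressed as percent viability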
Direction: viability, normalised: higher = more viable cells remaining
Active means: 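Active when normalised viability falls below 80 percent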
Calls: active = viability under 80%; inactive = viability 80% or more
Shown is an unselected part of the about 2,100 reagents, in one setting of the screen. 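Calls flag viability under 80% in either arm, not effects specific to rucaparib; the reference for percent is not stated.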 Unmarked entries are inactive. Some reagents were tested in more than one well and are listed for each. No sequences are given here. Not stated in the record: the 100% reference.

Gene | technical replicate | viability, normalised (%)
TAF6L (GeneID 10629) | 1 | 74.2 (active)
TAF6L (GeneID 10629) | 2 | 74.1 (active)
TAF6L (GeneID 10629) | 3 | 67 (active)
BNIP3 (GeneID 664) | 1 | 46.3 (active)
BNIP3 (GeneID 664) | 2 | 49.1 (active)
BNIP3 (GeneID 664) | 3 | 57.4 (active)
MED24 (GeneID 9862) | 1 | 57.4 (active)
MED24 (GeneID 9862) | 2 | 59.5 (active)
MED24 (GeneID 9862) | 3 | 58 (active)
PCNA (GeneID 5111) | 1 | 78.4 (active)
PCNA (GeneID 5111) | 2 | 61.9 (active)
PCNA (GeneID 5111) | 3 | 55.1 (active)
NEK11 (GeneID 79858) | 1 | 91.5
NEK11 (GeneID 79858) | 2 | 81.8
NEK11 (GeneID 79858) | 3 | 75.3 (active)
DDB2 (GeneID 1643) | 1 | 44.2 (active)
DDB2 (GeneID 1643) | 1 | 68.2 (active)
DDB2 (GeneID 1643) | 1 | 71.1 (active)
DDB2 (GeneID 1643) | 2 | 57.6 (active)
DDB2 (GeneID 1643) | 2 | 67.4 (active)
DDB2 (GeneID 1643) | 2 | 58.7 (active)
DDB2 (GeneID 1643) | 3 | 66.2 (active)
DDB2 (GeneID 1643) | 3 | 62.2 (active)
DDB2 (GeneID 1643) | 3 | 82.1
CLK3 (GeneID 1198) | 1 | 104
CLK3 (GeneID 1198) | 2 | 85.7
CLK3 (GeneID 1198) | 3 | 90.4
KDM5B (GeneID 10765) | 1 | 51.2 (active)
KDM5B (GeneID 10765) | 2 | 45.3 (active)
KDM5B (GeneID 10765) | 3 | 39 (active)
RNF17 (GeneID 56163) | 1 | 59.1 (active)
RNF17 (GeneID 56163) | 2 | 55.1 (active)
RNF17 (GeneID 56163) | 3 | 50.5 (active)
BRD2 (GeneID 6046) | 1 | 84.2
BRD2 (GeneID 6046) | 1 | 55 (active)
BRD2 (GeneID 6046) | 2 | 61.6 (active)
BRD2 (GeneID 6046) | 2 | 81.9
BRD2 (GeneID 6046) | 3 | 59.2 (active)
BRD2 (GeneID 6046) | 3 | 60.1 (active)
CHD3 (GeneID 1107) | 1 | 71.8 (active)
CHD3 (GeneID 1107) | 2 | 74.9 (active)
CHD3 (GeneID 1107) | 3 | 65.7 (active)
SND1 (GeneID 27044) | 1 | 47.2 (active)
SND1 (GeneID 27044) | 2 | 53.2 (active)
SND1 (GeneID 27044) | 3 | 40.8 (active)
SENP5 (GeneID 205564) | 1 | 77.7 (active)
SENP5 (GeneID 205564) | 2 | 72.6 (active)
SENP5 (GeneID 205564) | 3 | 42.2 (active)
DYRK4 (GeneID 8798) | 1 | 71 (active)
DYRK4 (GeneID 8798) | 2 | 66.2 (active)
DYRK4 (GeneID 8798) | 3 | 62.5 (active)
KAT2A (GeneID 2648) | 1 | 49.4 (active)
KAT2A (GeneID 2648) | 2 | 61.9 (active)
KAT2A (GeneID 2648) | 3 | 58.8 (active)
TSSK2 (GeneID 23617) | 1 | 93.8
TSSK2 (GeneID 23617) | 2 | 99.5
TSSK2 (GeneID 23617) | 3 | 94.7
RLF (GeneID 6018) | 1 | 41.7 (active)
RLF (GeneID 6018) | 2 | 35.9 (active)
RLF (GeneID 6018) | 3 | 33.2 (active)
HDAC9 (GeneID 9734) | 1 | 66.7 (active)
HDAC9 (GeneID 9734) | 2 | 68.5 (active)
HDAC9 (GeneID 9734) | 3 | 63.3 (active)
RIPK3 (GeneID 11035) | 1 | 99.1
RIPK3 (GeneID 11035) | 2 | 96.7
RIPK3 (GeneID 11035) | 3 | 55.9 (active)
NUAK2 (GeneID 81788) | 1 | 70.5 (active)
NUAK2 (GeneID 81788) | 2 | 75.7 (active)
NUAK2 (GeneID 81788) | 3 | 60.5 (active)
HSD17B4 (GeneID 3295) | 1 | 61.4 (active)
HSD17B4 (GeneID 3295) | 2 | 65 (active)
HSD17B4 (GeneID 3295) | 3 | 83.6
MED26 (GeneID 9441) | 1 | 50.1 (active)
MED26 (GeneID 9441) | 2 | 61.8 (active)
MED26 (GeneID 9441) | 3 | 61.3 (active)

9 entries from above, sorted by “viability, normalised (%)”, descending:
Gene | technical replicate | viability, normalised (%)
NEK11 (GeneID 79858) | 3 | 75.3 (active)
DDB2 (GeneID 1643) | 1 | 71.1 (active)
DDB2 (GeneID 1643) | 1 | 68.2 (active)
DDB2 (GeneID 1643) | 2 | 67.4 (active)
DDB2 (GeneID 1643) | 3 | 66.2 (active)
DDB2 (GeneID 1643) | 3 | 62.2 (active)
DDB2 (GeneID 1643) | 2 | 58.7 (active)
DDB2 (GeneID 1643) | 2 | 57.6 (active)
DDB2 (GeneID 1643) | 1 | 44.2 (active)
